The target of experiment [1] is T1, LIS1 (endogenous, HeLa) (human (endogenous in HeLa)) (UniProt P43034).
T1 sequence: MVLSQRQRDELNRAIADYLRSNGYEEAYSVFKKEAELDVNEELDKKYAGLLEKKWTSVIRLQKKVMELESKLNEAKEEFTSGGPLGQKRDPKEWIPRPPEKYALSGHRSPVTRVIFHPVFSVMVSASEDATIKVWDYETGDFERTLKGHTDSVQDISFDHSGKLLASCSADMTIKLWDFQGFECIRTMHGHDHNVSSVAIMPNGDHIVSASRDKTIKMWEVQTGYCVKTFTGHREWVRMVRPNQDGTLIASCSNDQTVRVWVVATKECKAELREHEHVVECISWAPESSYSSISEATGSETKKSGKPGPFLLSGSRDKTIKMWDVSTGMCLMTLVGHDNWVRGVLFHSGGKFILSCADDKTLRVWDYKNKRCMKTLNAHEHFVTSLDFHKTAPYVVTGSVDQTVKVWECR
Put plainly: co-IP; HeLa whole cell extract of Adeno-Tat infected cells; anti-LIS1 or anti-Flag antibodies, protein G-agarose, TNN buffer (50 mM Tris-HCl pH 7.5, 0.5% NP-40, 150 mM NaCl), 4°C, 2 h; immunoblot. Background: A western blot detects proteins with antibodies after separation by electrophoresis.

Amino acid sequences for entries named in this document (tags omitted). A change or cut given only in a name is not applied to a line headed by its entry. Chains listed by the source or under a name are the forms on record and can include a tag or linker. Residues count along the entry.
UniProt P04608: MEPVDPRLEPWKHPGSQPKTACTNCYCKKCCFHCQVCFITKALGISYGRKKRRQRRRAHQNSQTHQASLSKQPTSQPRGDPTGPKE
GST-fused Tat 1–72: residues 1-72 of P04608
GST-Tat (1–48): residues 1-48 of P04608
GST-Tat (37–72): residues 37-72 of P04608

Another experiment has as its target GST-Tat (1–48) (HIV-1) (UniProt P04608). Put plainly: pull-down; GST-fused Tat or GST alone immobilized on glutathione-agarose beads; [35S]methionine-labelled proteins in programmed reticulocyte lysates; 12% SDS-PAGE, autoradiogram; the lysate holds endogenous LIS1; only the target purified.
The next experiment deals with GST-Tat (37–72) (HIV-1) (UniProt P04608). Described as above.
The target of experiment [2] is GST-fused Tat 1–72 (HIV-1) (UniProt P04608). Described as above.
The next experiment has as its target Flag-tagged Tat (HIV-1) (UniProt P04608). Put plainly: co-IP; HeLa whole cell extract of Adeno-Tat infected cells; anti-LIS1 or anti-Flag antibodies, protein G-agarose, TNN buffer (50 mM Tris-HCl pH 7.5, 0.5% NP-40, 150 mM NaCl), 4°C, 2 h; immunoblot.

No constants are given. Whether binding was seen depends on the method and setting. Binding seen in cells or lysates may run through a third protein. Some results given as binding are weak or reduced against the parent protein; the word gives no strength.

With “Flag-tagged Tat (from UniProt P04608 1-86)”, the binding entry in experiment [1] is listed as “binds”.

B1: LIS1 (translated in reticulocyte lysate) (protein, UniProt P43034 1-410)
chain: T1 sequence
modifications: [35S]methionine label
As for B1, the binding entry (with GST-Tat (1–48) (HIV-1); with GST-Tat (37–72) (HIV-1); in experiment [2]) was “binds” each time.

B2: LIS1 (endogenous, HeLa) (protein, UniProt P43034 1-410)
chain: T1 sequence
In the case of B2, the binding result with Flag-tagged Tat (HIV-1) is given as “binds”.

These data come from article PMC549217.
